Assay results as given in PubChem BioAssay AID2073 (Sanford-Burnham Center for Chemical Genomics, 2009).
In all, about 290,000 compounds went through this assay and about 570 (0.2%) were called active. This list was built around the results that the source calls inconclusive (neither active nor inactive); the mix of calls is not that of the screen. Rule as the data show it: active = inhibition mostly above about 51% (no sharp cut-off); inconclusive = no clear call, values can overlap the other calls; inactive = mostly below about 53%.

Protein sequences, listed by entry. Tags and fused reporters are not part of them.
UniProt Q00975, whole entry, looked up: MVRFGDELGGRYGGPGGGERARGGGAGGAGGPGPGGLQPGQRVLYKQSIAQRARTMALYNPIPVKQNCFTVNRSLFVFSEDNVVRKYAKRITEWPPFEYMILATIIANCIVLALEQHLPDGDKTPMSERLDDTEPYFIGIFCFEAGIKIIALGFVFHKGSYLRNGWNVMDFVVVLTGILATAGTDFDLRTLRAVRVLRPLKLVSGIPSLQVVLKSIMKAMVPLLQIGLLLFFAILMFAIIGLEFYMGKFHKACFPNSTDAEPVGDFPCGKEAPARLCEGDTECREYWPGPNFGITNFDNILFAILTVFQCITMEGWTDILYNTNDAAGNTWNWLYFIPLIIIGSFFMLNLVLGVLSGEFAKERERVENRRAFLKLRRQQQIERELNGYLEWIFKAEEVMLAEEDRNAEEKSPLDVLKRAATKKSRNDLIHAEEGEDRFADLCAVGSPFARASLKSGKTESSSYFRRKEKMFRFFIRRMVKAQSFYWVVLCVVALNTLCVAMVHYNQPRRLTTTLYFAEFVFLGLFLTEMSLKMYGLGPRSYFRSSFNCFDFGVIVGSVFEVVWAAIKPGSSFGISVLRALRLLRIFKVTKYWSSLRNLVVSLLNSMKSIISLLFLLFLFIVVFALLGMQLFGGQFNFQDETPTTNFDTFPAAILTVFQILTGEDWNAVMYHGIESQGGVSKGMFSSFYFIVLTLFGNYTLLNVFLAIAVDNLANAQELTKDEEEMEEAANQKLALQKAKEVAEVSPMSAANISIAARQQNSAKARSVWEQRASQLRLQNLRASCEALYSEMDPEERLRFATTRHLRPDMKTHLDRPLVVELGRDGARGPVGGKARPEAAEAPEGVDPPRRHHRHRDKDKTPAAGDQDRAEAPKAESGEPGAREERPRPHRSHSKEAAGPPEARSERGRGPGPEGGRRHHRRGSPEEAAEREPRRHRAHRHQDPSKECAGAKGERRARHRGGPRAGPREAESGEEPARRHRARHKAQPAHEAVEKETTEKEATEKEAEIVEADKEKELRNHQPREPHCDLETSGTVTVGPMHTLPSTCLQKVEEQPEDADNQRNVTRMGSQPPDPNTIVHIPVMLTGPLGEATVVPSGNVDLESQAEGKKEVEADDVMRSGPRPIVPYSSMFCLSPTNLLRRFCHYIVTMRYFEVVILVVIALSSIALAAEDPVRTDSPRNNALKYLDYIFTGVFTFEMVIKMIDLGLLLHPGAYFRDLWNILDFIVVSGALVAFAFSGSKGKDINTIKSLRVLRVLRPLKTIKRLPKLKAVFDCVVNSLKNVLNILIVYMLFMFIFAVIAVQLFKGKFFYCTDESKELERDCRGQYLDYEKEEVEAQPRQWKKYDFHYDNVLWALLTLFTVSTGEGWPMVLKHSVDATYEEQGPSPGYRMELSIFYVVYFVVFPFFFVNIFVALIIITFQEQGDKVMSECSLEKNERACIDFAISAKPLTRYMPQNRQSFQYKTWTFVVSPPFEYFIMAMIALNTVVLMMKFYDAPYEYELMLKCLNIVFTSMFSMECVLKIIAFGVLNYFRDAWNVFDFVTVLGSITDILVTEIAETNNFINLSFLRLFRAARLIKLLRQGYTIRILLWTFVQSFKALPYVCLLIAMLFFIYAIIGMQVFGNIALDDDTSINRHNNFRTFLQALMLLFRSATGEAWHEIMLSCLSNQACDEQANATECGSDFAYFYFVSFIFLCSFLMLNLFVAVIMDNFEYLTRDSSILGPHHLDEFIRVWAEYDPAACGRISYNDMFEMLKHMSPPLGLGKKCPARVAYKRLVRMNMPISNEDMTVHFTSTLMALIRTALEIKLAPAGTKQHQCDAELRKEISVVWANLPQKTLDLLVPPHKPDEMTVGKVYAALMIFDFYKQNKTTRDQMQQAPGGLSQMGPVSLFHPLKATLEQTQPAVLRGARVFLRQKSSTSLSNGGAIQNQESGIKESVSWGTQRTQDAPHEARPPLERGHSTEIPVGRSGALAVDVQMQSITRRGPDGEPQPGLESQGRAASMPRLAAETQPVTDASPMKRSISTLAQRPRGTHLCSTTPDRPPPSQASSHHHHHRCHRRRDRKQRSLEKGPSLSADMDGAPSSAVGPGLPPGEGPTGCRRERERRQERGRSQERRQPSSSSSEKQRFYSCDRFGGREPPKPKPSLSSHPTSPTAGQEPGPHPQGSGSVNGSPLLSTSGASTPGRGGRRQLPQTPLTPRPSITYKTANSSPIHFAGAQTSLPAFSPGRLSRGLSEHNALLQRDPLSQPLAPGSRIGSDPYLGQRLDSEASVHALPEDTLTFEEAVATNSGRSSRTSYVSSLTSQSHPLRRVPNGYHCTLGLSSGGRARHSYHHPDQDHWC

What follows are molecules tested against Voltage-dependent N-type calcium channel subunit alpha-1B (Homo sapiens) (UniProt Q00975) (assay: disruptors of CaV2.2 binding to Mint1 – biochemical, HTRF (AID 2073)). Details: HTRF protein-protein interaction, Mint1-CaV2.2; at 20 µM; hits give high values.

Structure (SMILES)	inhibition
COc1ccccc1OCCCCN1CCN(c2ccccc2OC)CC1	inconclusive: 54.2%
O=C(CN1C(=O)NC2NC(=O)NC21)N/N=C/c1ccccc1O (stereo not given)	inconclusive: 54.9%
O=C(Nc1nn[nH]n1)c1cccc([N+](=O)[O-])c1	inconclusive: 53.6%
CCOC(=O)C1CCCN(C(=O)c2ccc3nc(-c4ccc(OC)c(OC)c4)c(-c4ccc(OC)c(OC)c4)nc3c2)C1 (stereo not given)	inactive: 10.2%
CC(C)C(NC(=O)c1ccc(Cl)cc1)C(=O)NC1=NCCS1 (stereo not given)	inconclusive: 55%
CCCc1ccc(S(=O)(=O)N2CCN(Cc3ccco3)CC2)cc1	inconclusive: 81.1%
Fc1ccccc1N1CCN(C2CCCN(Cc3ccccc3C(F)(F)F)C2)CC1 (stereo not given)	inactive: -0.4%
COC(=O)Nc1ccc(Oc2ccccc2)cc1	inconclusive: 88.3%
Cc1cc(=O)c2ccc(Cl)cc2[nH]1	inactive: 0.7%
COc1cccc(CC(Cc2nc3ccccc3[nH]2)c2nc3ccccc3[nH]2)c1 (stereo not given)	inactive: 4.4%
O=C(Nc1ccc(F)cc1)c1csc(Cc2ccccc2)n1	inconclusive: 65.3%
CSc1ccccc1NC(=O)CSCc1ccc(Br)cc1	inconclusive: 65.2%
CCCc1cc(=O)oc2c(C)c(O)c(CN3CCCCC3)cc12	inconclusive: 67.9%
Cc1ccc(C(=S)NCS(=O)(=O)c2ccc(C)cc2)cc1	inactive: 28%
O=C1C(Cl)=C(Nc2ccccc2O)C(=O)N1c1ccccc1	inconclusive: 91.6%
Cc1cc(-c2ccc(S(=O)(=O)N(C)Cc3ccccc3)cc2)on1	inactive: 9%
CCC(C(=O)Nc1ccc2c(c1)OCCO2)n1nnc2ccccc2c1=O (stereo not given)	inconclusive: 57.4%
CNC(=O)/C=C/c1cc(C(=O)c2ccc(Cl)cc2Cl)cn1C	inconclusive: 52.3%
O=C(O)/C=C/C(=O)NCc1csc2ccccc12	inactive: -5%
COc1ccc(/C=C/C(=O)NCC(=O)N2CCC(N(C)CCN3CCOCC3)CC2)cc1OC	inconclusive: 56.5%
Cc1ccnc(N2CCC(C(=O)NNC(=O)c3ccncc3)CC2)n1	inconclusive: 78.4%
C=CCn1c(-c2cccs2)nc2nc3ccccc3nc21	inconclusive: 84.4%
O=C(NCC(c1ccco1)N1CCCC1)c1ccccc1F (stereo not given)	inconclusive: 56.7%

Structure (SMILES)	inhibition
CCOCCCNC(=O)c1ccc2c(=O)n(CCCOCC)c(=S)[nH]c2c1	inconclusive: 70.4%
COC(=O)n1c(=O)oc2ccccc21	inconclusive: 64.9%
N#C/C(=C\c1ccc[nH]1)C(=O)Nc1ccccc1Cl	inconclusive: 52.4%
Cc1nc(C(C)N(C)Cc2nc(Cc3ccccc3F)no2)c(C)s1 (stereo not given)	inactive: -15.7%
CC(=O)CN1C(=O)NC(c2ccccc2)(c2ccccc2)C1=O	inactive: 12.2%
CCN(Cc1ccncc1)C(=O)c1cc(Br)cc(Br)c1O	inconclusive: 56.4%
Cc1cccnc1NC(=S)Nc1ncccc1C	inconclusive: 59.4%
Cc1cc(-c2ccc3ccccc3c2)n2ncnc2n1	inconclusive: 55.6%
COc1ccc(C(C)=O)cc1COC(=O)Cn1cnc2ccccc2c1=O	inconclusive: 68.3%
CCC1Oc2ccc(C)cc2N(CC(=O)N(Cc2cccnc2)Cc2cccc(F)c2)C1=O (stereo not given)	inactive: -3.3%
COc1ccccc1C1CC(c2ccco2)=NN1c1ccccc1 (stereo not given)	inconclusive: 54.7%
COc1ccc(/C=C2\CCCC3C2=NN(C(=O)CSc2n[nH]c(N)n2)C3c2ccc(OC)cc2)cc1 (stereo not given)	inconclusive: 66.7%
CCN(CC)c1ccc(/C=N/NC(=O)c2c(Cl)c(C)nn2C)cc1	inactive: 10.2%
COc1ccc(CNC(=O)CN(Cc2ccc(Cl)cc2)S(=O)(=O)c2ccccc2)cc1	inconclusive: 51.8%
O=c1ccc(-c2ccc(S(=O)(=O)N3CCN(c4ccccc4)CC3)o2)n[nH]1	inconclusive: 60%
CCOC(=O)C1CCN(C(=O)Nc2ccc3nccnc3c2)CC1	inactive: 24.5%
CCN(CC)CCNC(=O)c1cc(-c2ccco2)nc2ccccc12	inconclusive: 72.1%
Cc1cc(C)nc(NC(=O)NS(=O)(=O)Nc2ccc(Br)cn2)n1	inconclusive: 89.2%
Cc1ccc(S(=O)(=O)NCc2nc(-c3ccccc3)no2)cc1	inconclusive: 61.7%
CC(C(=O)O)N1C(=O)/C(=C/C=C/c2ccco2)SC1=S (stereo not given)	active: 77.7%
Cc1c(NC(=O)C2(C)CCCCC2)c(=O)n(-c2ccccc2)n1C	inactive: -0.1%
Cc1ccsc1/C=C/C1=Cc2c(sc(NC(=O)CSc3n[nH]c(N)n3)c2C#N)C(C)(C)C1	inactive: 20.6%
Cn1c(Cn2c(=O)sc3ccccc32)nnc1SCc1ccccn1	inconclusive: 78.4%

Structure (SMILES)	inhibition
CC(C)(C)NC(=O)C(c1ccco1)N(Cc1ccc2c(c1)OCO2)C(=O)Cn1nnc2ccccc21 (stereo not given)	inconclusive: 61.7%
CC(C)CCNC(=O)NC(=O)COC(=O)c1cc(S(=O)(=O)N2CCOCC2)ccc1N1CCCCC1	inconclusive: 64.6%
CC(=O)c1sc(NC(=O)COc2ccc([N+](=O)[O-])cc2)nc1C	inconclusive: 62.3%
O=c1oc2c(O)cccc2cc1-c1nc2ccccc2[nH]1	inconclusive: 53%
Cn1c(=O)c2c(nc(CN3CCC(C(N)=O)CC3)n2CCCc2ccccc2)n(C)c1=O	inconclusive: 61.9%
C/C=C\C(=O)Nc1cccc(C2=NOC3(C2)C[C@@H](C(N)=O)N(C(=O)CC(c2ccccc2)c2ccccc2)C3)c1 (stereo not given in full)	inconclusive: 56%
COC(=O)C1=C(C)NC(=O)/C1=C\c1ccc2c(c1)OCO2	inconclusive: 66.5%
O=C(Cn1c(-c2ccco2)nc2ccccc21)N1CCCCC1	inactive: -14.9%
COc1cccc(Nc2nc(-c3ccccc3O)nc3ccccc23)c1	inconclusive: 55.7%
O=c1[nH]cnc(O)c1N=Nc1ccccc1	inactive: -0.9%
CN1CCN(S(=O)(=O)c2ccc(-c3ccccc3)cc2)CC1	inconclusive: 66.5%
COc1ccc(-c2ccc(C(=O)O)o2)c([N+](=O)[O-])c1	active: 59.6%
CCCOC(=O)/C(=C\C=C\c1ccccc1)NC(=O)c1ccccc1	inactive: -6.3%
CCC(=O)NC1=C(Cl)C(=O)C(NC(=O)CC)=C(Cl)C1=O	inconclusive: 82%
C=C1CCC(C)C(C)(CCC2=CCOC2=O)C/C=C\C=C/1C(=O)O (stereo not given)	inconclusive: 54%
O=c1oc2c(CN3CCN(CCO)CC3)c(O)ccc2cc1-c1ccccn1	inactive: 30.4%
CCCN1C(=O)c2cccc3c(N4CCCCC4)ccc(c23)C1=O	inactive: 11.8%
Cc1cc(C)c2c(CN3CCN(Cc4ccc5c(c4)OCO5)CC3)cc(=O)oc2c1C	inconclusive: 64%
CC1CC(=O)C2=C(C1)Nc1nc3ccccc3n1C2c1cccnc1 (stereo not given)	inconclusive: 62.8%
Cc1ccc(C(c2sc3ncnn3c2O)N2CCCCC2)cc1 (stereo not given)	inconclusive: 74.9%
Cc1c(C(=O)O)oc2ccc3c(c12)C(O)CC(C)(C)O3 (stereo not given)	inconclusive: 61.9%
COc1ccccc1S(=O)(=O)Cc1ccc(C(=O)N2CCCC2)o1	inactive: 0.3%
NC(=O)c1ccccc1Nc1nc2nc3ccccc3c(=O)n2cc1Br	inconclusive: 56.4%

Taken from above:
Value for CC1CC(=O)C2=C(C1)Nc1nc3ccccc3n1C2c1cccnc1 (stereo not given) under inhibition: inconclusive: 62.8%
Value for COc1ccccc1S(=O)(=O)Cc1ccc(C(=O)N2CCCC2)o1 under inhibition: inactive: 0.3%
Value for Cc1ccc(C(c2sc3ncnn3c2O)N2CCCCC2)cc1 (stereo not given) under inhibition: inconclusive: 74.9%
Value for NC(=O)c1ccccc1Nc1nc2nc3ccccc3c(=O)n2cc1Br under inhibition: inconclusive: 56.4%
Value for CC(C)CCNC(=O)NC(=O)COC(=O)c1cc(S(=O)(=O)N2CCOCC2)ccc1N1CCCCC1 under inhibition: inconclusive: 64.6%

Following part

Structure (SMILES)	inhibition
CCC(C)(C)n1nnnc1C(c1cc2ccc(OC)cc2[nH]c1=O)N1CCc2ccccc2C1 (stereo not given)	active: 56.9%
Cc1ccc(N(CC(O)CN2C(=O)NC(C)(C)C2=O)S(=O)(=O)c2ccc(C)cc2)cc1 (stereo not given)	inconclusive: 98.9%
O=c1c2ccc(Cl)cc2nc2n1CC/C2=C\c1cccc(O)c1	inconclusive: 63.1%
Cc1noc(C)c1S(=O)(=O)Nc1ccc(C(=O)NC2CCCCC2)cc1	inconclusive: 53.5%
CC(=O)Nc1ccc(OCCOc2ccc(/C=C3\C(=N)N4N=C(C)SC4=NC3=O)cc2)cc1	inactive: 24.7%
COc1ccc(O)c(N)c1	inconclusive: 84.7%
O=C(CSc1nc(-c2ccc(F)cc2)nc2c1Cc1ccccc1O2)Nc1cccc(C(=O)O)c1	inconclusive: 102%
CC(/C=N/NC(=O)c1cc(-c2ccccc2)nc2ccccc12)=C\c1ccco1	active: 52.6%
CC1Cc2nc(SCC(=O)Nc3ccc(F)cc3F)n(C)c(=O)c2S1 (stereo not given)	inconclusive: 63.6%
COc1ccc(CNS(=O)(=O)c2ccc3oc(C(=O)O)c(C)c3c2)cc1	inconclusive: 57.2%
COc1ccccc1NC(=O)c1ccc[n+]([O-])c1	inconclusive: 58.2%
CCOc1ccccc1N1Cc2cc(C)c(C)cc2C1	inconclusive: 78.9%
CCc1ccc(N(CC(=O)Nc2ccc(NC(C)=O)cc2)S(=O)(=O)c2ccccc2)cc1	inconclusive: 56.3%
COc1cccc2c1OC1(C)CC2NC(=O)N1c1cccc(C(=O)N2CCN(c3ccccc3)CC2)c1 (stereo not given)	inconclusive: 61.1%
COc1ccc(-c2csc(-c3ccc(C(=O)O)cc3)n2)cc1	inconclusive: 55.3%
COc1ccc(CCNC(=O)C2CC(c3ccccc3C(F)(F)F)=NO2)cc1 (stereo not given)	inconclusive: 83.9%
O=C(Nc1ccc(-c2nc3ccccc3s2)c(OC(=O)c2ccccc2)c1)c1ccccc1	inconclusive: 72.7%
CCOc1ccccc1C(=O)Nn1c(C2CCC2)nc2ccccc2c1=O	inconclusive: 64.3%
O=C(Nc1nccs1)c1ccc2c(c1)C(=O)N(Cc1cccnc1)C2=O	inconclusive: 58.6%
COC(=O)Cn1c(C)nc2c(sc3nc(C)cc(C)c32)c1=O	inactive: 7.1%
O=S(=O)(Nc1cc(Sc2ncn[nH]2)c(O)c2ccccc12)c1ccccc1	inactive: 56.7%
